# From publication PMC3511274
# By UniProt entry, the sequences of proteins in these tests, tags left out.
# UniProt Q04206: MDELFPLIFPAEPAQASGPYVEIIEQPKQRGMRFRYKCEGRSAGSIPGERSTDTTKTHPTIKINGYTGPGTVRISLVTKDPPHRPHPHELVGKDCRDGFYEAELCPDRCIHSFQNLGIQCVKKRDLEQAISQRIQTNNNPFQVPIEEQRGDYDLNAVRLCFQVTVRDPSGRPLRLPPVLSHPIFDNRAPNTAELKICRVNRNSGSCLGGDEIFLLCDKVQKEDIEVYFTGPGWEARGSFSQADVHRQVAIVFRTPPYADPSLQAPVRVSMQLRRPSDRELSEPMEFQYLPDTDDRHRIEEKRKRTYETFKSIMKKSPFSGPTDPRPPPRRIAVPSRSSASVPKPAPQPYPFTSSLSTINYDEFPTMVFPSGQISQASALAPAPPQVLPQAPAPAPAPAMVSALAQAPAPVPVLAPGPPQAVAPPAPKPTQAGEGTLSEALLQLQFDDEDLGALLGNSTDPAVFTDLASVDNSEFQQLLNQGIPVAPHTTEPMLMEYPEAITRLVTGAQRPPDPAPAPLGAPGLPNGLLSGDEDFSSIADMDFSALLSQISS
# UniProt P49715: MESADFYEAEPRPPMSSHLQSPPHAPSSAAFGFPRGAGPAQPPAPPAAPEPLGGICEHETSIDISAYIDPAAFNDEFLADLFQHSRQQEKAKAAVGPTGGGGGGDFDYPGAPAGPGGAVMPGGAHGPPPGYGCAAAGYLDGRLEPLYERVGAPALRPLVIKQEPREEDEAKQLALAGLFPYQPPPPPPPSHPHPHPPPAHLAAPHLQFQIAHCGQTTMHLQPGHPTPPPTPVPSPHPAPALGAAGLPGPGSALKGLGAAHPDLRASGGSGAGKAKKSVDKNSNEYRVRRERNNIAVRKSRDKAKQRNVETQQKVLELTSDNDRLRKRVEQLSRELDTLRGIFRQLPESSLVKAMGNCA
# These are yes or no findings as the source states them, for the method shown. In cells and extracts the contact can be indirect. Some results given as binding are weak or reduced against the parent protein; the word gives no strength.
# Experiments:
# [1] = target: nuclear factor of Kappa B/P65 (human (endogenous in primary human hepatocytes)) (UniProt Q04206); assay: co-IP; whole cell lysates of TNFα treated hepatocytes (1×10^6); lysis buffer with 0.4 M NaCl, diluted 1:1; 1 µg rabbit anti-P65 or mouse anti-CEBPα (or normal IgG) overnight, Protein G beads; washes with 0.2 M NaCl; immunoblot
# [2] = target: CCAAT/enhancer-binding protein alpha (human (endogenous in primary human hepatocytes)) (UniProt P49715); assay: as above
binding [1],binding [2],Substance
binds,,CCAAT/enhancer-binding protein alpha (from UniProt P49715 1-358)
,binds,nuclear factor of Kappa B/P65 (from UniProt Q04206 1-551)
